# In patent US20040258656:
# Chains of the proteins cited; added tags and fusions are not shown. Residues count along the entry.
# UniProt P01137, 279-390: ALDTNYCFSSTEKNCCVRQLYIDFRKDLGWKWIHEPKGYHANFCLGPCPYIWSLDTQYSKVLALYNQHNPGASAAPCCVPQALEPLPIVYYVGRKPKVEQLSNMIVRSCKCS
# UniProt P61812, 303-414: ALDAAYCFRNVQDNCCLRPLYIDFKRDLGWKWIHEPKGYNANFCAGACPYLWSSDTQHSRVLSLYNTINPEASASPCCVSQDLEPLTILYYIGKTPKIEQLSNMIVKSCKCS
# For part of these data: The comparison behind a weaker result is the experiment's own reference, which may not be listed here. For part of these data: Where a protein sequence is shown, tags need not be part of it. For part of these data: For at least one entry, the source does not settle the construct or the ends of the probe. For part of these data: Whether high values mean tight binding is not given here for every scale.
# What was measured:
# [1] = target: TGFβ1 (transforming growth factor beta 1) (Homo sapiens) (UniProt P01137); test: binding assay; details: 3'-3' U, purified recombinant protein, protein details: mature 112 aa form, sequence listed in two parts, variant of CD70 (ChD70)
# [2] = target: TGFβ1 (transforming growth factor beta 1) (Homo sapiens) (UniProt P01137); test: activity in cells; details: 2'-F C and U; 3'-3' dT cap; specificity control; purified recombinant protein; protein details: mature 112 aa form, sequence listed in two parts; variant of 21a-21
# [3] = target: T1, TGFβ3 (transforming growth factor beta 3) (Homo sapiens) (UniProt P10600); test: activity in cells; details: 2'-F C and U; 3'-3' dT cap; specificity control; purified recombinant protein; protein details: mature 112 aa form, sequence listed in two parts; variant of 21a-21
# T1 sequence: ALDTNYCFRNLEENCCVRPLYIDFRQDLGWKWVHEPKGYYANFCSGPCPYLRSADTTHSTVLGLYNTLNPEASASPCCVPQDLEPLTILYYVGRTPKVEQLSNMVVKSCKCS
# [4] = target: TGFβ2 (transforming growth factor beta 2) (Homo sapiens) (UniProt P61812); test: filter binding; details: 2'-F C and U, RNase H product, purified recombinant protein, protein details: mature 112 aa form, sequence listed in two parts, variant of 21a-21
# [5] = target: T1, TGFβ3 (transforming growth factor beta 3) (Homo sapiens); test: filter binding; details: 2'-F C and U; specificity control; purified recombinant protein; protein details: mature 112 aa form, sequence listed in two parts
sequence,measurement,setting,value
GGGUGCCUUUUGCCUAGGUUGUAACCUUCUGCCCA [ChD70-m21],binding result,"[1]; 2'-OMe purines at 1-3, 16-18, 21, 23-24 and 35, PEG linker (spacer 18) replacing loop after position 21",binds more weakly
GGGUGCCUUUUGCCUAGGUUAACCUUCUGCCCA [ChD70-m22],binding result,"[1]; 2'-OMe purines at 1-3, 16-18, 21-22 and 33, PEG linker (spacer 18) replacing loop after position 20",binds
GGAGGUUAUUACAGAGUCUGUAUAGCUGUACUCCCC [NX22283],Ki,[2],> 1000 nM
same,Ki,[3],> 1000 nM
GGUUCAGGAGGUUAUUACAGAGUCUGUAUAGCUGUACUCCCCAGACGACUCGCCCGA [21a-21Δ5'],binding signal (x Kd of NX22284),[4],0.5
GGGUGCCUUUUGCCUAGGUUGUGAUUUGUAACCUUCUGCCC [ChD70-m19],binding result,"[1]; 2'-OMe purines at 1-3, 16-18, 21, 23-24, 28 and 30-31, 3' terminal A deleted, no bioactivity",binds more weakly
GGGAGGACGAUGCGGUUCAGGAGGUUAUUACAGAGUCUGUAUAGCUGUACUCCCCAGACGACUCGCCCGA [21a-21],Kd,[5],> 30 µM
GGGUGCCUUUUGCCUAGGUUGUGUAACCUUCUGCCCA [ChD70-m20],binding result,"[1]; 2'-OMe purines at 1-3, 16-18, 21, 23, 25-26 and 37, PEG linker (spacer 18) replacing loop after position 22",binds more weakly
GGGAGGACGAUGCGGUUCAGGAGGUUAUUACAGAGUCUGUAUAGCUGUACUCCCCA [21a-21Δ3'],binding signal (x Kd of NX22284),"[4]; 3' removal alone eliminates binding (p185), counted as no binding",100
